These are yes or no findings as the source states them, for the method shown. For some of these results: In cells and extracts the contact can be indirect. Some results given as binding are weak or reduced against the parent protein; the word gives no strength. Sequences can lack the tags named with a protein.

Here are results for five molecules from article PMC4164784, “4E-BPs require non-canonical 4E-binding motifs and a lateral surface of eIF4E to repress translation” (Nature Communications, 2014).

The target in assay [1] is T1, SHN-eIF4E (full length, WT) (Drosophila melanogaster) (UniProt P48598).
T1 sequence: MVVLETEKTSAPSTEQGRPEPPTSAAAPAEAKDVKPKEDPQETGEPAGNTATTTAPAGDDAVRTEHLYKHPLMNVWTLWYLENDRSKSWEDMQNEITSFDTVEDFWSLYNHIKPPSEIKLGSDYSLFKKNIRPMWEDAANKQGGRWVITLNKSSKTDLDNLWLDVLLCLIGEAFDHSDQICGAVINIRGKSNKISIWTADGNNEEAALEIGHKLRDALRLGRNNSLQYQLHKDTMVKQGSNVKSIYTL
Description: pull-down; competition titration: 2 μM purified SHN-eIF4E–GST-eIF4G complexes (coexpressed, co-purified) with 2–20 μM purified competitor, 20 min at 4 °C; eIF4E pulled down on Strep-Tactin Sepharose; both purified.

Assay [2] deals with T2, MBP-tagged eIF4E (Drosophila melanogaster) (UniProt P48598).
T2 sequence: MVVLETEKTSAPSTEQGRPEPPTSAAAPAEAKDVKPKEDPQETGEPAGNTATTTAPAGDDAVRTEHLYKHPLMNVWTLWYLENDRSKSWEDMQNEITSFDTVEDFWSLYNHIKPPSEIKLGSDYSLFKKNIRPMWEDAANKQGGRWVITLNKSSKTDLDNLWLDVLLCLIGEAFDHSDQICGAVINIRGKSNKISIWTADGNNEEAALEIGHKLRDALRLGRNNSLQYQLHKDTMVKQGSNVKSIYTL
Description: pull-down; competition: purified MBP-eIF4E–GST-eIF4G complex mixed with bacterial lysates with fivefold molar excess of MBP-CUP-GB1 peptides, 30 min at 4 °C; eIF4E recovered on m7GTP-sepharose beads; only the target purified.

In assay [3] the target is T3, MBP-eIF4G-GB1 (residues 578–650) (Drosophila melanogaster) (UniProt O61380).
T3 sequence: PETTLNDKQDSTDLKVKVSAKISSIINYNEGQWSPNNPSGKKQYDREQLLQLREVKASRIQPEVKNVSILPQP
The experiment in a line: pull-down; MBP pull-down on amylose resin; purified eIF4E (69–248) added to cleared bacterial lysates with the MBP- and GB1-tagged fragments; 50 mM HEPES pH 7.2, 200 mM NaCl, 2 mM DTT; 1 h at 4 °C; Coomassie; only the binder purified.

Assay [4] concerns the target T4, MBP-CUP C+NC-GB1 (Drosophila melanogaster) (UniProt Q9VMA3).
T4 sequence: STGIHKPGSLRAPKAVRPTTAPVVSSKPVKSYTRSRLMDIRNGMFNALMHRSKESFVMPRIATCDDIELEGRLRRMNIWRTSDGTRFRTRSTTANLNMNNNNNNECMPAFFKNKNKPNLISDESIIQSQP
Described as above.

Assay [5] has as its target T5, MBP-eIF4G (residues 578–650, WT) (Drosophila melanogaster) (UniProt O61380).
T5 sequence: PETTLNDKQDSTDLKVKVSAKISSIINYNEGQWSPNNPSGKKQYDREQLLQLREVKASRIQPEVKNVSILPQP
The experiment in a line: pull-down; eIF4E coexpressed with the GST- or MBP-tagged bait in E. coli; cleared lysates on glutathione agarose or amylose resin, 1 h; 20 mM Tris–HCl pH 7.5, 100 mM NaCl, 1 mM DTT; Coomassie.

Assay [6] addresses T6, GST-CUP-GB1 (residues 311–440, WT) (Drosophila melanogaster) (UniProt Q9VMA3).
T6 sequence: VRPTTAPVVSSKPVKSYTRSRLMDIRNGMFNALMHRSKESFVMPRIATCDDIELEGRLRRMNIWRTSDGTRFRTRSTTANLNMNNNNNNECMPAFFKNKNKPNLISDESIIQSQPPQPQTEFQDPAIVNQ
The assay is described as above.

Assay [7] has as its target T7, MBP-Thor (full length, ΔNC) (Drosophila melanogaster) (UniProt Q9XZ56).
T7 sequence: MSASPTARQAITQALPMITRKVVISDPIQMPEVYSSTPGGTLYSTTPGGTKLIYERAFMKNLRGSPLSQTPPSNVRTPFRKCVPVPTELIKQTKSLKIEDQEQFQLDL
Described as above.

Assay [8] addresses T8, MBP-Thor (full length, NC*) (Drosophila melanogaster) (UniProt Q9XZ56).
T8 sequence: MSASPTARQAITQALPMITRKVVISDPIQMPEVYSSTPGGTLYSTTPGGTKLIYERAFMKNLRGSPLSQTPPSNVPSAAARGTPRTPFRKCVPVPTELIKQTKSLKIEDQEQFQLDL
The description is as above.

For assay [9], the target named is T9, MBP-Thor (full length, WT) (Drosophila melanogaster) (UniProt Q9XZ56).
T9 sequence: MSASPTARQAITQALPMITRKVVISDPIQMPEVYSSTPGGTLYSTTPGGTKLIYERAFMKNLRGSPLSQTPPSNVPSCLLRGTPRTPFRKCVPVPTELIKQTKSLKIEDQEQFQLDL
The description is as above.

Assay [10] concerns the target T2, MBP-tagged eIF4E (Drosophila melanogaster). Description: pull-down; preassembled MBP-eIF4E–GST-eIF4G complex (coexpressed, purified on glutathione agarose) recovered on m7GTP-sepharose beads; both purified.

B1: CUP C+NC peptide fused C-terminally to GB1 (domain or fragment, UniProt Q9VMA3 296-425)
chain: STGIHKPGSLRAPKAVRPTTAPVVSSKPVKSYTRSRLMDIRNGMFNALMHRSKESFVMPRIATCDDIELEGRLRRMNIWRTSDGTRFRTRSTTANLNMNNNNNNECMPAFFKNKNKPNLISDESIIQSQP
Take B1: the binding entry in [1] was “binds”.

B2: MBP-CUP C+NC-GB1 (domain or fragment, UniProt Q9VMA3 296-425)
chain: STGIHKPGSLRAPKAVRPTTAPVVSSKPVKSYTRSRLMDIRNGMFNALMHRSKESFVMPRIATCDDIELEGRLRRMNIWRTSDGTRFRTRSTTANLNMNNNNNNECMPAFFKNKNKPNLISDESIIQSQP
On to B2, for which, in [2], the binding result is “binds”.

B3: eIF4E (residues 69–248), purified (domain or fragment, UniProt P48598-2 69-248)
chain: KHPLMNVWTLWYLENDRSKSWEDMQNEITSFDTVEDFWSLYNHIKPPSEIKLGSDYSLFKKNIRPMWEDAANKQGGRWVITLNKSSKTDLDNLWLDVLLCLIGEAFDHSDQICGAVINIRGKSNKISIWTADGNNEEAALEIGHKLRDALRLGRNNSLQYQLHKDTMVKQGSNVKSIYTL
Consider B3, for which the binding entry in [3] and in assay [4] was “binds” each time.

B4: His6-eIF4E (full length, WT) (protein, UniProt P48598-2 1-248)
chain: MVVLETEKTSAPSTEQGRPEPPTSAAAPAEAKDVKPKEDPQETGEPAGNTATTTAPAGDDAVRTEHLYKHPLMNVWTLWYLENDRSKSWEDMQNEITSFDTVEDFWSLYNHIKPPSEIKLGSDYSLFKKNIRPMWEDAANKQGGRWVITLNKSSKTDLDNLWLDVLLCLIGEAFDHSDQICGAVINIRGKSNKISIWTADGNNEEAALEIGHKLRDALRLGRNNSLQYQLHKDTMVKQGSNVKSIYTL
As to B4, the binding entry in assay [5], in assay [6], in assay [7], in assay [8] and in [9] was “binds” each time.

B5: GST-eIF4G (residues 578–650) (domain or fragment, UniProt O61380 578-650)
chain: PETTLNDKQDSTDLKVKVSAKISSIINYNEGQWSPNNPSGKKQYDREQLLQLREVKASRIQPEVKNVSILPQP
For the molecule B5, the binding result in assay [10] is on record as “binds”.
